Assay results from article PMC12561426.

Test system: BACH1 DBD of BACH1-sMafGχ + sMafG DBD of chimeras
Assay: EMSA
Settings: 150 mM NaCl, 50 mM HEPES pH 7.9, 10% glycerol, 1 mM TCEP, 1 mM DTT, 2 mM MgCl2, 3 nM DNA, TEV and 3C 50 ug/mL each, 4 h 25 °C, competition then O/N 4 °C, recombinant protein

Sequence | binding result (8 h non-reducing before DNA assembly, large binding reduction, dye not stated, label: Cy5 on forward strand) | binding result (incubation-first: 10 h at 4 °C without reducing agent, then DNA, dye on DNA not stated, label: 5' fluorescein on forward strand)
CTCGGGACCGTGACTCAGCAGGAAAAACAC (double strand) [HMOX1 CsMBE 30-mer, Cy5] | binds more weakly | –
CTCGGGACCGTGACTCAGCAGGAAAAACAC (double strand) [HMOX1 CsMBE 30-mer] | – | no binding

No signal at the amounts used counts as a negative. For at least one entry, the source does not settle the construct or the ends of the probe. A weaker result is weaker than the reference pair of the same experiment.
